PubChem BioAssay AID504774 | Drosophila RNAi Screening Center, 2011

Purpose: 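Knock-downs that shift viability of MMS-exposed cells relative to untreated ones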 (primary screen)
Cells: Drosophila Kc167 cells
Reagents: long dsRNA against Drosophila genes, about 0.25 µg dsRNA per well
Duration: about 6 days: 3 days knock-down, then 3 days with or without MMS
Challenge: methyl methanesulphonate 0.004% (w/v) for 3 days after knock-down
Read-out: 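ATP-dependent luminescence as a measure of live cells in MMS-exposed wells, quantile normalised within each plate, with replicate values also given as a mean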
Reading the numbers: mean viability with MMS and viability with MMS: higher = more surviving cells after MMS
In all, the deposit lists about 23,000 reagents; this is a random part of those with a known target gene and a result. 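Values are quantile-normalised luminescence on an arbitrary scale; higher means more cells surviving MMS.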 A plus sign joins genes that one reagent is predicted to hit.

mean viability with MMS	viability with MMS, replicate 1	viability with MMS, replicate 2	target	dsRNA
3.57e6	4.02e6	4.07e6	ZnT77C (Zinc transporter 77C)	DRSC11766
3.61e6	4.04e6	4.13e6	ZnT77C (Zinc transporter 77C)	DRSC11767
3.58e6	4.02e6	4.10e6	Sin1 (SAPK-interacting protein 1)	DRSC05965
3.84e6	4.45e6	4.28e6	JIL-1 (JIL-1 kinase)	DRSC11200
3.49e6	4.00e6	3.94e6	CG33285	DRSC11463
3.48e6	4.26e6	3.65e6	CG8509	DRSC20109
3.51e6	4.05e6	3.92e6	Kap-alpha3 (karyopherin alpha3)	DRSC16976
3.87e6	4.82e6	3.85e6	CG14151	DRSC10153
3.40e6	3.93e6	3.92e6	CG13016	DRSC06271
3.64e6	4.20e6	3.99e6	Hers + amn	DRSC20306
3.80e6	4.50e6	4.13e6	CG31883	DRSC02561
3.53e6	3.98e6	4.01e6	Evi5 (Ecotropic viral integration site 5)	DRSC19421
3.58e6	4.07e6	4.04e6	CG12990	DRSC19510
3.70e6	4.30e6	4.11e6	Cyp6d5 (Cytochrome P450 6d5)	DRSC16634
3.66e6	4.19e6	4.09e6	Rab8	DRSC11261
3.51e6	3.94e6	4.01e6	Sec24AB (Secretory 24AB)	DRSC06478
3.51e6	3.94e6	4.02e6	Jhbp15 (Juvenile hormone binding protein 15)	DRSC15217
3.76e6	4.30e6	4.24e6	CG18662	DRSC02691
2.13e6	4.24e6		NijB (Ninjurin B)	DRSC09850
3.29e6	3.80e6	3.64e6	CG14451	DRSC11708
3.61e6	4.10e6	4.11e6	CG11170	DRSC04090
3.68e6	4.50e6	4.28e6	CG3149	DRSC17732
2.18e6	4.31e6		CG42674	DRSC10066
3.31e6	3.75e6	3.71e6	CG42674	DRSC10067
3.53e6	3.98e6	4.01e6	CG42674	DRSC10811
3.62e6	4.22e6	4.01e6	Efhc1.2 (EF-hand domain containing 1.2)	DRSC06027
3.92e6	4.02e6	4.90e6	CG31926	DRSC00295
3.78e6	4.23e6	4.32e6	CG5225	DRSC15742

4 consecutive entries from above:
mean viability with MMS	viability with MMS, replicate 1	viability with MMS, replicate 2	target	dsRNA
3.48e6	4.26e6	3.65e6	CG8509	DRSC20109
3.51e6	4.05e6	3.92e6	Kap-alpha3 (karyopherin alpha3)	DRSC16976
3.87e6	4.82e6	3.85e6	CG14151	DRSC10153
3.40e6	3.93e6	3.92e6	CG13016	DRSC06271
